Screen size: about 31,000 sequences; about 1,400 (4.5%) were called active.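 How the source made its calls: active means median seed-adjusted z-score above 1 or below -1; inactive means the rest.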 The list shows a part of the results.

The nature of the assay: Novel Modifiers of Survival Motor Neuron (SMN) Protein: Gene Identification via Genome-wide siRNA Screen.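 Further: luminescence tracks full-length SMN protein made from the SMN2 reporter.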 The note with it: HEK293T SMN2-luciferase reporter, siRNA knockdown, 72 h; actives lie on both sides. The procedure, abridged:
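Each of three siRNAs per gene is reverse-transfected (1 pmol) into reporter HEK293T cells whose luciferase output tracks SMN protein level. After 72 h culture, ONE-Glo luminescence is control-normalized, log10-transformed and MAD-standardized; Common Seed Analysis deprioritizes seed-driven hits.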
A general note: A reporter such as luciferase makes a cellular process visible.
CCGGGAACCUGGUUCAGUUTT against PLA2G2E: the median seed-adjusted z-score is inactive: -0.37.

Turning to GCUGGUACCCUGGAGGAAATT against GNRH2, the median seed-adjusted z-score is active: 1.13.

Turning to GAAUCGGAAUUUAUCAUUATT against CDH9, the median seed-adjusted z-score is inactive: -0.18. As for CCUCCGUCCUGUUUAGGAATT against LCN2, the figure is inactive: 0.123. The result for UCAUGAGCCUGAUAAGUGATT against PPP2R5D reads inactive: 0.848; that for AGACCAUCCUGAAAGAGCATT against GPRC5C, inactive: 0.498. For the sequence GCAUCCCUAUCUACAGUUUTT against GPR55, the median seed-adjusted z-score is inactive: -0.114.

As for AGAUGUACCUAUGUCAAGATT against OVOL1, the median seed-adjusted z-score is inactive: -0.0414.

As to GAGGUAUUCUAGUUCCAAUTT against LST-3TM12, the median seed-adjusted z-score is inactive: -0.109. As to CAGAAAUUAUCGAUAUGUUTT against AKR1C4, the median seed-adjusted z-score was inactive: -0.0323. For the sequence CUAGAUCGCUUUAAAGUGATT against RCHY1, the median seed-adjusted z-score is inactive: -0.157. As for CGAAUAUGACCUUCACCAATT against HOMER2, the figure is inactive: 0.522; as for ACCAUUUCAUGUACCCUGATT against ST3GAL2, inactive: -0.139; as for AGAUUAUCAUAUUGGGUGATT against RAB7B, inactive: 0.

Regarding CCAUGGACACUACCGGUUATT against RELN, the median seed-adjusted z-score was inactive: 0.207. As for CAAUCAAAGCAAAUGUUUUTT against TNRC4, the figure is inactive: 0.801; as for CAACGACAGUGGUAUUCAATT against DNAJC10, inactive: 0.0527; as for CGUCAAUUUGUAUAACUUATT against SLC16A14, inactive: 0.464. The result for GGAACAAGAGUGCAAGAUUTT against ACOXL reads inactive: 0.53; that for GAAUACCGGGUCUUAAUUATT against MOV10, inactive: 0.0759. GGAAAUUGACCUACUCUUUTT against PCDHGA5: the median seed-adjusted z-score is inactive: 0.163.

With GCUUGGAUGUAAAACUGAATT against IL24, the median seed-adjusted z-score is inactive: -0.125.

With CCAGCGGAAUCGAAUGAGATT against EIF3D, the median seed-adjusted z-score was inactive: 0.104. The result for CUAUGGGUAUGACUACUUUTT against BPHL reads inactive: -0.161; that for UGCUCAUGCUGGAUCAUCATT against SMARCD2, inactive: 0.162.

On to GAAAAGUUGGAGAAGAUGATT against GINS2, for which the median seed-adjusted z-score was inactive: 0.553. As for GGUGUAUGCUGAGGUGAAATT against EIF2C1, the figure is inactive: 0.215. The result for GGAUGGGAGUGGAGAGUUATT against EGLN2 reads inactive: -0.349; that for GUGUCUCUGAUGAACCACATT against SYT15, inactive: 0.0164.
